This assay is described as follows: qHTS Assay for Lipid Storage Modulators in Drosophila S3 Cells.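 As to cell number change: cells counted by Cell Tracker Red CMTPX staining in the red channel.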 As to conditions: BODIPY lipid droplet fluorescence, 18-24 h; for cell number change: measured here: cell count max response, cells fed with added oleic acid. The method, boiled down:
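Drosophila S3 cells got compounds at several concentrations plus oleic acid (400 uM solution). Laser-scanning cytometry with 488 nm excitation read lipid droplets at 500-530 nm and cells at 575-640 nm. Percent activity was relative to 20 uM Triacsin C.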

Setting [1] is: measured here: lipid fluorescence (Fed channel) AC50, cells fed with added oleic acid.
The mark [2] stands for this setting: measured here: cell number channel AC50, cells fed with added oleic acid.

The source of these data is PubChem BioAssay AID2685 (National Center for Advancing Translational Sciences (NCATS), 2010).

Molecules are shown by their SMILES. Some of the results follow. These are further read-outs of the screen, such as a control signal, another cell line or another target. No call is given for them. The list favours compounds with an active or inconclusive main result. The note in brackets gives the kind of curve behind each potency; many fits are weak.

Turning to `CCOc1ccc(N2C(=O)NC(=O)/C(=C\c3cc(OC)c(OC)cc3[N+](=O)[O-])C2=O)cc1`, the cell number change was -7.41%. For the same molecule, under setting [1], the AC50 (usually the concentration at which the activity in the assay is half-maximal) is 4.61 µM [falling, full curve].

On to `CCC(=Nc1ccccc1NC(C)=O)c1c(O)n(C)c(=O)n(C)c1=O`, for which the cell number change was -140%. For the same molecule, the half-maximal activity concentration (AC50) under setting [2] is 18.4 µM [falling, partial curve]. Also, under setting [1], the AC50 was 0.58 µM [falling, single point].

Consider `Cc1nn(Cc2ccccc2)c(Cl)c1C(=O)NC1CCCc2ccccc21` (configuration not stated), for which the cell number change is -24.1%. Further, the AC50 under setting [1] was 20.6 µM [falling, single point].

On to `O=C(COc1ccc(Cl)cc1)NCCc1cnc[nH]1`, for which the cell number change worked out at 46.5%. Also, the AC50 under setting [2] was 32.6 µM [rising, partial curve, poor fit].

As to `Cc1ccccc1N1C(=O)NC(=O)/C(=C\c2cc(Br)c(N3CCOCC3)o2)C1=O`, the cell number change is -31.5%. For the same molecule, the AC50 under setting [2] is 8.2 µM [falling, partial curve, poor fit].

Consider `CCN(CC)C(=O)c1ccc(NC(=O)c2cccc(C(F)(F)F)c2)cc1`, for which the cell number change came out at 58%.

For the molecule `CC(=NCC1CCCO1)c1c(O)n(Cc2ccccc2)c(=O)[nH]c1=O` (configuration not stated), the cell number change amounted to 48.8%. The AC50 under setting [2] is 14.6 µM [rising, partial curve, poor fit]. In addition, under setting [1], the AC50 was 16.4 µM [rising, partial curve, poor fit].

With `O=C(O)c1cc2ccccc2oc1=O`, the cell number change stood at 8.24%. The AC50 under setting [1] is 0.13 µM [falling, full curve].

Regarding `COC(=O)C1=C(c2ccc(F)cc2OCc2ccccc2)C[C@@H]2CC[C@H]1N2C(=O)NCCOc1ccccc1`, the cell number change was -6.51%. Further, the AC50 under setting [2] was 7.31 µM [falling, single point].

Consider `COC(=O)c1c(C)n(Cc2ccco2)c2ccc(O)cc12`, for which the cell number change stood at 20.2%. Moreover, the AC50 under setting [1] was 6.51 µM [rising, single point].

In the case of `Cc1cccc(N2C(=O)NC(=O)/C(=C/c3ccc(N4CCOCC4)cc3)C2=O)c1`, the cell number change amounted to 61.2%. In addition, the AC50 under setting [1] was 2.91 µM [falling, single point].

On to `N=c1c2c(n(Cc3ccc(Cl)cc3Cl)c3c1CCC3)CCCC2`, for which the cell number change was -47.7%. Moreover, the AC50 under setting [2] is 29.1 µM [falling, single point].

In the case of `c1ccc(CC2CCCCN2)cc1` (configuration not stated), the cell number change is 14.8%. Moreover, the AC50 under setting [1] is 13 µM [rising, partial curve].

In the case of `COC(=O)C1=C(c2cccc3c2S(=O)(=O)c2ccccc2-3)C[C@@H]2CC[C@H]1N2C(=O)N1CCc2cc(OC)c(OC)cc2C1`, the cell number change is -47.3%. The AC50 under setting [2] is 0.103 µM [falling, full curve, poor fit]. Also, under setting [1], the AC50 is 29.1 µM [falling, single point].

Regarding `S=P(Nn1cnnc1)(c1ccc(Br)cc1)c1ccc(Br)cc1`, the cell number change was -60.4%. Further, the half-maximal activity concentration (AC50) under setting [2] was 29.1 µM [falling, single point]. Besides, the AC50 under setting [1] is 29.1 µM [falling, single point].

For `Cc1cc(/C=C2\C(=O)NC(=O)N(c3cccc(F)c3)C2=O)c(C)n1-c1cc(C(=O)O)cc(C(=O)O)c1`, the cell number change is -41.3%. Also, the AC50 under setting [1] was 0.0058 µM [falling, full curve, poor fit].

For `O=Cc1cn(Cc2ccccc2F)c2ccccc12`, the cell number change was -17.5%. Moreover, under setting [1], the AC50 was 23.1 µM [falling, single point].

As to `N#CC1(c2ccccc2)CCN(C2CC(=O)N(c3ccc(F)cc3)C2=O)CC1` (configuration not stated), the cell number change is -130%.

Regarding `Cc1ccsc1CNCCc1ccccc1F`, the cell number change is -18.4%.

Regarding `COc1cc(C(C#N)N2CCCCC2)ccc1O` (configuration not stated), the AC50 under setting [2] is 4.61 µM [falling, full curve].

For `CC(=O)OC1N=C(c2ccccc2)c2ccccc2NC1=O` (configuration not stated), the cell number change is -2.07%.

For `CC(C)N1CCN(c2ccc(O)cc2)CC1`, the cell number change came to 36.7%. The AC50 under setting [2] is 18.4 µM [rising, single point]. The AC50 under setting [1] was 29.1 µM [rising, single point].

For the molecule `COc1ccc(CCNCc2sccc2C)cc1OC`, the cell number change was -6.95%.

For the molecule `O=C(NCCCn1ccnc1)C(Cl)(Cl)Cl`, the cell number change came to 16.9%. Under setting [1], the AC50 is 0.0058 µM [falling, full curve, poor fit].

Turning to `COc1ccccc1N1CCN(Cc2c(F)cccc2Cl)CC1`, the cell number change was -13.1%. Moreover, the AC50 under setting [1] was 0.0058 µM [falling, full curve, poor fit].

`Oc1cc(O)cc(/C=C/c2ccc(O)cc2O)c1`: the cell number change is -31.2%. Besides, the AC50 under setting [2] is 29.1 µM [falling, single point].

In the case of `CN(C)C(CNC(=O)Cc1ccc(Br)cc1)c1ccccc1` (configuration not stated), the cell number change was 23.5%. Further, under setting [1], the AC50 was 0.206 µM [rising, single point].

Turning to `Cn1cc(C(=O)N2CCOCC2)c2ccccc21`, the cell number change is -33.9%.

With `Cc1cc(OCC(=O)NCc2ccncc2)c2c3c(c(=O)oc2c1)CCCC3`, the cell number change is -24.1%. Further, the AC50 under setting [1] was 29.1 µM [falling, single point].

In the case of `O=C(NC(Cc1cnc[nH]1)C(=O)O)c1ccccc1` (configuration not stated), the cell number change was -39.7%.

As for `CN(C)c1ccc(C(=O)N/N=C/C23CC[C@@H](O)CC2(O)CC[C@@H]2[C@@H]3CCC3(C)C(C4=CC(=O)OC4)CCC23O)cc1` (some centres not stated), the AC50 reads like this: under setting [2], 0.259 µM [rising, full curve, poor fit]; under setting [1], 0.366 µM [rising, partial curve, poor fit].

On to `CCC1C(C#N)=C(N)Oc2c1c(=O)oc1ccccc21` (configuration not stated), for which the cell number change amounted to 23.4%.

Regarding `COc1ccc(N/N=C/c2c(O)n(-c3ccc(C)c(C)c3)c(=O)[nH]c2=O)cc1`, the cell number change came out at 7.45%. In addition, under setting [1], the AC50 is 1.84 µM [rising, partial curve].

For `O=[N+]([O-])c1cc(Cl)c(O)c(-[n+]2c(-c3ccccc3)cc(-c3ccccc3)cc2-c2ccccc2)c1`, the cell number change is -4.14%. Further, under setting [1], the AC50 was 29.1 µM [falling, single point].

For the molecule `O=c1[nH]c(=O)n(-c2cccc(Cl)c2)c(O)c1C=NCCN1CCCCC1`, the cell number change is -5.21%. The AC50 under setting [1] was 0.164 µM [falling, full curve, poor fit].

Regarding `CCSc1nnc([C@@H](N)Cc2c[nH]c3ccccc23)o1`, the cell number change was -9.34%. Further, the AC50 under setting [2] was 6.51 µM [falling, partial curve, poor fit]. The AC50 under setting [1] was 3.26 µM [falling, full curve, poor fit].

`C=Cn1ccnc1P(=S)(c1ccccc1)c1nccn1C=C`: the cell number change is -25.4%.

Turning to `CC1=NN=C(c2ccc(N)cc2)c2cc3c(cc2C1)OCO3`, the cell number change worked out at 51.7%. Moreover, under setting [2], the AC50 was 0.517 µM [rising, full curve]. For the same molecule, under setting [1], the AC50 is 0.82 µM [rising, full curve].

Regarding `O=C(O)c1cc[c]([Hg][Cl])cc1`, the cell number change was -31.7%.

On to `Cc1nn(CC(=O)N2CCC3(CC2)OCCO3)c(=O)c2cc3ccccc3n12`, for which the cell number change came to 59.6%. Further, under setting [2], the AC50 was 13 µM [rising, partial curve, poor fit]. Further, the AC50 under setting [1] is 6.51 µM [falling, single point].
